Test results as given in ChEMBL document CHEMBL6114964, “Discovery of novel spirocyclic derivates as potent androgen receptor antagonists” (Bioorg Med Chem, 2025).

System: LNCaP
Assay: cells
Format: functional, cell-based
Conditions: Homo sapiens, 168 h

**Q.** Which IC50 does the source give for `CNC(=O)c1ccc(N2C(=S)N(c3ccc(C#N)c(C(F)(F)F)c3)C(=O)C2(C)C)cc1F` [ENZALUTAMIDE] here?
**A.** The IC50 was 1720 nM.
